According to publication PMC12696372:
Results are given in words; binding and its absence hold for the method and conditions named. Binding seen in cells or lysates may run through a third protein. Binding can be weak; no strength is given. Sequences can lack the tags named with a protein.

Legend:
[1] = target: OsPEL1-Cv (BiFC fusion) (rice (Oryza sativa)); assay: split reporter; BiFC with N- and C-terminal halves of YFP in NT rice protoplasts, NLS-RFP cotransfected, confocal microscopy
[2] = target: OsPEL1-C-Luc (split-luciferase fusion) (rice (Oryza sativa)); assay: split reporter; split-luciferase in planta: N-Luc and C-Luc fusions agroinfiltrated into tobacco leaves, 2 mM luciferin

binding [1] | binding [2] | Binder
binds | – | OsGLK1-Nv (BiFC fusion) (protein, UniProt Q5Z5I4 1-455) MLAVSPAMCPDIEDRAAVAGDAGMEVVGMSSDDMDQFDFSVDDIDFGDFFLRLEDGDVLPDLEVDPAEIFTDFEAIATSGGEGVQDQEVPTVELLAPADDVGVLDPCGDVVVGEENAAFAGAGEEKGGCNQDDDAGEANVDDGAAAVEAKSSSPSSTTSSSQEAESRHKSSSKSSHGKKKAKVDWTPELHRRFVQAVEQLGIDKAVPSRILEIMGIDSLTRHNIASHLQKYRSHRKHMIAREAEAASWTQRRQIYAAGGGAVAKRPESNAWTVPTIGFPPPPPPPPSPAPIQHFARPLHVWGHPTMDPSRVPVWPPRHLVPRGPAPPWVPPPPPSDPAFWHHPYMRGPAHVPTQGTPCMAMPMPAARFPAPPVPGVVPCPMYRPLTPPALASKNQQDAQLQLQVQPSSESIDAAIGDVLSKPWLPLPLGLKPPSVDSVMGELQRQGVANVPPACG
– | binds | OsGLK1-N-Luc (split-luciferase fusion) (protein, UniProt Q5Z5I4 1-455) MLAVSPAMCPDIEDRAAVAGDAGMEVVGMSSDDMDQFDFSVDDIDFGDFFLRLEDGDVLPDLEVDPAEIFTDFEAIATSGGEGVQDQEVPTVELLAPADDVGVLDPCGDVVVGEENAAFAGAGEEKGGCNQDDDAGEANVDDGAAAVEAKSSSPSSTTSSSQEAESRHKSSSKSSHGKKKAKVDWTPELHRRFVQAVEQLGIDKAVPSRILEIMGIDSLTRHNIASHLQKYRSHRKHMIAREAEAASWTQRRQIYAAGGGAVAKRPESNAWTVPTIGFPPPPPPPPSPAPIQHFARPLHVWGHPTMDPSRVPVWPPRHLVPRGPAPPWVPPPPPSDPAFWHHPYMRGPAHVPTQGTPCMAMPMPAARFPAPPVPGVVPCPMYRPLTPPALASKNQQDAQLQLQVQPSSESIDAAIGDVLSKPWLPLPLGLKPPSVDSVMGELQRQGVANVPPACG
